PubChem BioAssay AID1159584 – Peter MacCallum Cancer Centre | 2016
Screen: 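Knock-downs that harm CDH1-null cells more than parental MCF10A cells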 (primary screen). Cell system: human MCF10A breast epithelial cells, parental and CDH1-null. Knock-down reagent: siRNA against human genes. Measurement: 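Cell viability by CellTiter-Glo ATP luminescence, each line scaled to the mean of mock wells across plates, then CDH1-null over parental ratio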. Scale: CDH1-null / parental viability ratio: higher = CDH1-null cells survive relatively better than parental; CDH1-null viability vs mock: higher = more viable CDH1-null cells.
Here is an unselected part of about 18,000 reagents tested. The numbers tell different reagents against one gene apart. Further read-outs or replicates are left out here. Reagent sequences are not shown. The record does not give: the amount of reagent, the time to read-out.

target gene | reagent no. | CDH1-null / parental viability ratio | CDH1-null viability vs mock (fraction of mock)
PLEKHB2 | 1 | 1.11 | 0.98
MED9 | 1 | 1.02 | 0.45
DAB2 | 1 | 1.16 | 0.74
PKN1 | 1 | 0.85 | 0.73
CDIPT | 1 | 0.9 | 0.86
PDHB | 1 | 0.98 | 0.58
PLAAT2 | 1 | 0.74 | 0.45
ZNF354A | 1 | 1.01 | 0.96
APC2 | 1 | 0.83 | 0.57
SMYD4 | 1 | 0.85 | 0.79
DNAJC25-GNG10 | 1 | 0.68 | 0.49
SMOC2 | 1 | 1 | 0.48
IFIT1B | 1 | 1.01 | 0.75
MRPL52 | 1 | 0.97 | 0.64
METAP1D | 1 | 1.19 | 0.5
TECTA | 1 | 0.89 | 1.02
TRIAP1 | 1 | 0.78 | 0.64
BOLA1 | 1 | 1.26 | 0.86
SEC14L4 | 1 | 0.97 | 0.64
DOK7 | 1 | 1.18 | 0.9
CPAP | 1 | 0.98 | 0.49
PLPP5 | 1 | 0.86 | 0.69
LGI2 | 1 | 0.87 | 0.7
TNFSF18 | 1 | 1.18 | 0.78
HSPB8 | 1 | 1.24 | 1.05
SCFD2 | 1 | 1 | 0.82
SECTM1 | 1 | 0.93 | 0.53
TIA1 | 1 | 0.62 | 0.52
LIN28A | 1 | 1.12 | 0.83
BAZ2B | 1 | 0.91 | 0.75
PRR21 | 1 | 0.83 | 0.5
YKT6 | 1 | 0.93 | 0.69

The list goes on; the last 2 above are carried over.
target gene | reagent no. | CDH1-null / parental viability ratio | CDH1-null viability vs mock (fraction of mock)
PRR21 | 1 | 0.83 | 0.5
YKT6 | 1 | 0.93 | 0.69
PSME1 | 1 | 0.9 | 0.63
DDI2 | 1 | 1.54 | 1.17
DDI2 | 2 | 1.09 | 0.94
AAMP | 1 | 1.13 | 0.54
HOXC6 | 1 | 0.95 | 0.71
STXBP5 | 1 | 1.13 | 1.06
TMEM39B | 1 | 0.9 | 0.74
TOR3A | 1 | 0.95 | 0.82
TUFT1 | 1 | 1.15 | 0.46
FRA10AC1 | 1 | 1.14 | 0.92
SPEN | 1 | 1.47 | 0.88
PTGES2 | 1 | 1 | 0.84
FHL1 | 1 | 1.03 | 0.96
SPEF1 | 1 | 1.19 | 0.7
MARCKS | 1 | 0.88 | 0.51
CMTM4 | 1 | 0.85 | 0.68
PSTK | 1 | 0.73 | 0.72
PKMYT1 | 1 | 0.8 | 0.76
TNFSF8 | 1 | 1.28 | 0.77
MROH7 | 1 | 1.15 | 0.82
EPB42 | 1 | 0.79 | 0.57
PPIP5K2 | 1 | 0.97 | 0.66
ZNF800 | 1 | 0.74 | 0.7
TAS2R41 | 1 | 1.15 | 0.78
KRTAP10-8 | 1 | 0.99 | 0.9
ARHGAP15 | 1 | 0.98 | 0.59
BBLN | 1 | 1.42 | 0.68
EIF3F | 1 | 1.34 | 1.07
RPRD1A | 1 | 0.89 | 0.84
KIF1A | 1 | 1.11 | 0.92
PPP1R14D | 1 | 1.14 | 0.91
ACTR3 | 1 | 1.07 | 1.04
LRCH3 | 1 | 0.91 | 0.42
NTHL1 | 1 | 0.76 | 0.68
SSR4 | 1 | 1.29 | 0.72
CDC42EP1 | 1 | 0.87 | 0.72
